# Measured values: US10800806B2, “Sterol derivatives and use thereof for treating diseases involving transformed astrocyte cells or for treating malignant haemopathies” (BETA INNOV, priority 2012, dated 2020)
# At least one compound was matched to its structure with a doubt left.
# How the values were obtained:
# [1] = test system: LDH from Lactobacillus leichmannii (LL); experiment: Inhibition of LDH activity, in gel assay after IEF; type: biochemical; conditions: aqueous form, 18 mM
# Method: The measurements of the activity of LDH and of its inhibition by a routine inhibitor, oxamate (23), were validated by the spectrometric method (24) using the purified LDH of Lactobacillus leichmannii (LL) (Sigma) as standard.
# (§1) Next, the LDH activities and their inhibition were detected by the “in gel assay” technique (25). The source of activity used was LDH LL and LDH, partially purified, from human GBM lines U87-MG (LDH GBM). “In gel assay” detection was carried out after isoelectric focusing (IEF) on electrophoresis gels of the LDH LL and LDH GBM samples.
# The mini-gels of 7.5 (T %) and of 2.6 (C %) are poured into Pi with the Ampholines (BioRad) making it possible to form a pH gradient in the range from 7 to 5 after pre-focusing in a cold chamber. The containers used are of the mini-protean 3 type (BioRad). […]
# (§2) The LDH activity is detected by the lactate/NAD/MTT/phenazine methosulphate system (formation of a precipitate of the formazan type in the IEF gel); this system is described in reference (25). […]
# (§3) The activity of LDH is detected by the “in gel assay” technique on IEF electrophoresis gels, which were described in the section “A/ PROTOCOLS 6)” (25); the precision of this technique is 0.2 unit of pH. The activity of LDH is detected by a dark blue precipitate, of the formazan type, the site where LDH activity is located.
# [2] = test system: partially purified LDH from human GBM lines (U87-MG); experiment: Inhibition of LDH activity, in gel assay after IEF; type: biochemical; conditions: aqueous form, 18 mM
# Method: as §1
# The cells collected in phosphate buffer (50 mM, Ph 7.2.Pi) undergo several freeze (−20° C.)/thaw cycles and the cellular material is homogenized. After centrifugation at 10,000 g for 45 min at 4° C., the supernatant is collected and aliquots containing 10% glycerol (v:v) are frozen at −80° C. At the desired time, the aliquots, after thawing, are chromatographed on a filtration column (Biogel P-60, BioRad) prepared in Pi. The volume of gel is 9 ml and the inside diameter of the column is 0.4 cm. Elution is carried out at atmospheric pressure. […]
# as §2, §3
smiles,measurement,setting,value
"NC(=O)C(=O)O [oxamate, reference compound]",inhibition of the enzymatic activity of LDH LL,[1],almost completely
same,inhibition of the enzymatic activity of LDH GBM,[2],partially
